This note sets out measurements from patent US11040959B2 (The Scripps Research Institute, priority 2016, dated 2021).

The data set is described as follows: general procedure: Fmoc solid-phase peptide synthesis; Wang resin; HBTU/HOBt/DIEA; DCC/DMAP for the C-terminal amino acid. Particulars: conjugation step.

On to “(2-(2,5-Bis((3S,4S)-3,4-bis(((1S,2R)-2-phenyl-cyclopropyl)carbamoyl)pyrrolidine-1-carbonyl)-phenoxy)acetyl)glycyl-L-seryl-L-lysyl-L-lysine”, for which, for the setting “TFA salt”, the conjugation yield was determined as 74%.
For “(2-(2,5-Bis((3S,4S)-3,4-bis(((1S,2R)-2-phenylcyclopropyl)carbamoyl)pyrrolidine-1-carbonyl)-phenoxy)acetyl)glycyl-L-lysyl-L-lysyl-L-lysyl-L-lysyl-L-lysine”, the conjugation yield (TFA salt) is recorded as 54%.
With “(2-(2,5-Bis((3S,4S)-3,4-bis(((1S,2R)-2-phenylcyclopropyl)carbamoyl)pyrrolidine-1-carbonyl)phenoxy)acetyl)glycyl-L-seryl-L-lysyl-L-lysyl-L-lysyl-L-lysyl-L-lysine”, the conjugation yield (TFA salt) is listed as 73%.
Regarding “(2-(2,5-Bis((3S,4S)-3,4-bis(((1S,2R)-2-phenyl-cyclopropyl)carbamoyl)pyrrolidine-1-carbonyl)-phenoxy)acetyl)glycyl-L-seryl-L-lysyl-L-lysyl-L-lysine”, the conjugation yield (TFA salt) is given as 74%.
“(2-(2,5-Bis((3S,4S)-3,4-bis(((1S,2R)-2-phenyl-cyclopropyl)carbamoyl)pyrrolidine-1-carbonyl)-phenoxy)acetyl)glycyl-L-seryl-L-seryl-L-seryl-L-seryl-L-serine” registered a conjugation yield of 12%.
Regarding “(2-(2,5-Bis((3S,4S)-3,4-bis(((1S,2R)-2-phenyl-cyclopropyl)carbamoyl)pyrrolidine-1-carbonyl)-phenoxy)acetyl)glycyl-L-seryl-L-lysyl-L-lysyl-L-lysyl-L-lysine”, under “TFA salt”, the conjugation yield was 30%.
